Test results published in US20130045962A1, “PEPTIDE DEFORMYLASE INHIBITORS” (priority 2007, published 2013).
pIC50: −log10 of the molar value. Some entries share one result that the patent states for a list of compounds. For at least one compound, name, drawing or mass did not settle the structure.

Amino acid sequences for entries named in this document (tags omitted). A change or cut given only in a name is not applied to a line headed by its entry.
UniProt P44786: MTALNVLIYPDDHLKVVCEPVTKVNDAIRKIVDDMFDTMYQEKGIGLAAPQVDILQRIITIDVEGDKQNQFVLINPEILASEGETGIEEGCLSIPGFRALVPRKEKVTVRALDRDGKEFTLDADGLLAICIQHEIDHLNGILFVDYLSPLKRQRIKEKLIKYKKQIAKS

Molecular target: Haemophilus influenzae PDF (Haemophilus influenzae, UniProt P44786)
Assay: PDF IC50 assay (FDH-coupled), H. influenzae PDF
Format: biochemical
Settings: read-out: IC50, inhibition of H. influenzae PDF activity

Row | Structure (SMILES) | pIC50
1 | Cc1nc(NNC(=O)[C@H](CC2CCCC2)CN(O)C=O)c(F)c(N(C)Cc2csc(N)n2)n1 [Example 119, N-[(2R)-3-[2-(6-{[(2-Amino-1,3-thiazol-4-yl)methyl](methyl)amino}-5-fluoro-2-methyl-4-pyrimidinyl)hydrazino]-2-(cyclopentylmethyl)-3-oxopropyl]-N-hydroxyformamide] | ≥ 7.00
2 | CSc1nc(NNC(=O)[C@H](CC2CCCC2)CN(O)C=O)c(F)c(N2CCN(C)[C@@H](C)C2)n1 [Example 121, ((2R)-2-(Cyclopentylmethyl)-3-{2-[6-[(3S)-3,4-dimethyl-1-piperazinyl]-5-fluoro-2-(methylthio)-4-pyrimidinyl]hydrazino}-3-oxopropyl)hydroxyformamide] | ≥ 7.00
3 | CSc1nc(NNC(=O)[C@H](CC2CCCC2)CN(O)C=O)c(F)c(N2CCN(C)[C@H](C)C2)n1 [Example 125, ((2R)-2-(Cyclopentylmethyl)-3-{2-[6-[(3R)-3,4-dimethyl-1-piperazinyl]-5-fluoro-2-(methylthio)-4-pyrimidinyl]hydrazino}-3-oxopropyl)hydroxyformamide] | ≥ 7.00
4 | C[C@H]1CN(C)CCN1c1nc(CF)nc(NNC(=O)[C@H](CC2CCCC2)CN(O)C=O)c1F [Example 126, ((2R)-2-(Cyclopentylmethyl)-3-{2-[6-[(2S)-2,4-dimethyl-1-piperazinyl]-5-fluoro-2-(fluoromethyl)-4-pyrimidinyl]hydrazino}-3-oxopropyl)hydroxyformamide] | ≥ 7.00
5 | O=CN(O)C[C@@H](CC1CCCC1)C(=O)NNc1nc(Cl)nc(NC2CC2)c1F [Example 127, [(2R)-3-{2-[2-Chloro-6-(cyclopropylamino)-5-fluoro-4-pyrimidinyl]hydrazino}-2-(cyclopentylmethyl)-3-oxopropyl]hydroxyformamide] | ≥ 7.00
6 | Cc1nc(NNC(=O)[C@H](CC2CCCC2)CN(O)C=O)c(F)c(N2CC(O)C3(CC3)C2)n1 (stereo partly drawn) [Example 128, ((2R)-2-(Cyclopentylmethyl)-3-{2-[5-fluoro-6-(7-hydroxy-5-azaspiro[2.4]hept-5-yl)-2-methyl-4-pyrimidinyl]hydrazino}-3-oxopropyl)hydroxyformamide] | ≥ 7.00
7 | CSc1nc(NNC(=O)[C@H](CC2CCCC2)CN(O)C=O)c(F)c(N2CCN(C)C[C@@H]2C)n1 [Example 131, ((2R)-2-(Cyclopentylmethyl)-3-{2-[6-[(2S)-2,4-dimethyl-1-piperazinyl]-5-fluoro-2-(methylthio)-4-pyrimidinyl]hydrazino}-3-oxopropyl)hydroxyformamide] | ≥ 7.00
8 | CSc1nc(NNC(=O)[C@H](CC2CCCC2)CN(O)C=O)c(F)c(N2CCC[C@@H](N(C)C)C2)n1 [Example 132, ((2R)-2-(Cyclopentylmethyl)-3-{2-[6-[(3R)-3-(dimethylamino)-1-piperidinyl]-5-fluoro-2-(methylthio)-4-pyrimidinyl]hydrazino}-3-oxopropyl)hydroxyformamide] | ≥ 7.00
9 | CN(Cc1ccncc1)c1nc(Cl)nc(NNC(=O)[C@H](CC2CCCC2)CN(O)C=O)c1F [Example 137, [(2R)-3-(2-{2-Chloro-5-fluoro-6-[methyl(4-pyridinylmethyl)amino]-4-pyrimidinyl}hydrazino)-2-(cyclopentylmethyl)-3-oxopropyl]hydroxyformamide] | ≥ 7.00
10 | Cc1nc(NNC(=O)[C@H](CC2CCCC2)CN(O)C=O)c(F)c(N2CC[C@@H](O)[C@@H]2C)n1 [Example 139, [(2R)-2-(Cyclopentylmethyl)-3-(2-{5-fluoro-6-[(2S,3R)-3-hydroxy-2-methyl-1-pyrrolidinyl]-2-methyl-4-pyrimidinyl}hydrazino)-3-oxopropyl]hydroxyformamide] | ≥ 7.00
11 | CSc1nc(NNC(=O)[C@H](CC2CCCC2)CN(O)C=O)c(F)c(N2CCOC[C@@H]2CO)n1 [Example 141, ((2R)-2-(Cyclopentylmethyl)-3-{2-[5-fluoro-6-[(3S)-3-(hydroxymethyl)-4-morpholinyl]-2-(methylthio)-4-pyrimidinyl]hydrazino}-3-oxopropyl)hydroxyformamide] | ≥ 7.00
12 | O=CN(O)C[C@@H](CC1CCCC1)C(=O)NNc1nc(Cl)nc(N2CCN3CCCCCC3C2)c1F (stereo partly drawn) [Example 142, N-[(2R)-3-{2-[2-Chloro-5-fluoro-6-(octahydropyrazino[1,2-a]azepin-2(1H)-yl)-4-pyrimidinyl]hydrazino}-2-(cyclopentylmethyl)-3-oxopropyl]-N-hydroxyformamide] | ≥ 7.00
13 | O=CN(O)C[C@@H](CC1CCCC1)C(=O)NNc1nc(Cl)nc(NCCN2CCOCC2)c1F [Example 143, [(2R)-3-[2-(2-Chloro-5-fluoro-6-{[2-(4-morpholinyl)ethyl]amino}-4-pyrimidinyl)hydrazino]-2-(cyclopentylmethyl)-3-oxopropyl]hydroxyformamide] | ≥ 7.00
14 | Cc1nc(NNC(=O)[C@H](CC2CCCC2)CN(O)C=O)c(F)c(N2CCN(C)C[C@@H]2CO)n1 [Example 144, [(2R)-2-(Cyclopentylmethyl)-3-(2-{5-fluoro-6-[(2R)-2-(hydroxymethyl)-4-methyl-1-piperazinyl]-2-methyl-4-pyrimidinyl}hydrazino)-3-oxopropyl]hydroxyformamide] | ≥ 7.00
15 | C[C@@H]1CN(c2nc(Cl)nc(NNC(=O)[C@H](CC3CCCC3)CN(O)C=O)c2F)C[C@H](C)N1C [Example 145, N-[(2R)-3-(2-{2-Chloro-5-fluoro-6-[(3R,5S)-3,4,5-trimethyl-1-piperazinyl]-4-pyrimidinyl}hydrazino)-2-(cyclopentylmethyl)-3-oxopropyl]-N-hydroxyformamide] | ≥ 7.00
16 | Cc1nc(NNC(=O)[C@H](CC2CCCC2)CN(O)C=O)c(F)c(N2CC[C@@H](N(C)C)[C@H]2C)n1 [Example 146, [(2R)-2-(Cyclopentylmethyl)-3-(2-{6-[(2R,3R)-3-(dimethylamino)-2-methyl-1-pyrrolidinyl]-5-fluoro-2-methyl-4-pyrimidinyl}hydrazino)-3-oxopropyl]hydroxyformamide] | ≥ 7.00
17 | CN1CCN(c2nc(Cl)nc(NNC(=O)[C@H](CC3CCCC3)CN(O)C=O)c2F)C(C)(C)C1 [Example 147, [(2R)-3-{2-[2-Chloro-5-fluoro-6-(2,2,4-trimethyl-1-piperazinyl)-4-pyrimidinyl]hydrazino}-2-(cyclopentylmethyl)-3-oxopropyl]hydroxyformamide] | ≥ 7.00
18 | CN1CCN(c2nc(Cl)nc(NNC(=O)[C@H](CC3CCCC3)CN(O)C=O)c2F)CC1(C)C [Example 148, [(2R)-3-{2-[2-Chloro-5-fluoro-6-(3,3,4-trimethyl-1-piperazinyl)-4-pyrimidinyl]hydrazino}-2-(cyclopentylmethyl)-3-oxopropyl]hydroxyformamide] | ≥ 7.00
19 | Cc1nc(NNC(=O)[C@H](CC2CCCC2)CN(O)C=O)c(F)c(N2C[C@@H](C)N(C)[C@@H](C)C2)n1 [Example 149, N-[(2R)-2-(Cyclopentylmethyl)-3-(2-{5-fluoro-2-methyl-6-[(3R,5S)-3,4,5-trimethyl-1-piperazinyl]-4-pyrimidinyl}hydrazino)-3-oxopropyl]-N-hydroxyformamide] | ≥ 7.00
20 | CN(C)C[C@@H]1COCCN1c1nc(Cl)nc(NNC(=O)[C@H](CC2CCCC2)CN(O)C=O)c1F [Example 156, {(2R)-2-(Cyclopentylmethyl)-3-[2-(6-{(3R)-3-[(dimethylamino)methyl]-4-morpholinyl}-5-fluoro-2-methyl-4-pyrimidinyl)hydrazino]-3-oxopropyl}hydroxyformamide] | ≥ 7.00
21 | CC(C)(CNc1nc(Cl)nc(NNC(=O)[C@H](CC2CCCC2)CN(O)C=O)c1F)N1CCOCC1 [Example 157, [(2R)-3-[2-(2-Chloro-5-fluoro-6-{[2-methyl-2-(4-morpholinyl)propyl]amino}-4-pyrimidinyl)hydrazino]-2-(cyclopentylmethyl)-3-oxopropyl]hydroxyformamide] | ≥ 7.00
22 | CN(C)C12CC1CN(c1nc(Cl)nc(NNC(=O)[C@H](CC3CCCC3)CN(O)C=O)c1F)C2 (stereo partly drawn) [Example 161, [(2R)-3-(2-{2-Chloro-6-[1-(dimethylamino)-3-azabicyclo[3.1.0]hex-3-yl]-5-fluoro-4-pyrimidinyl}hydrazino)-2-(cyclopentylmethyl)-3-oxopropyl]hydroxyformamide] | ≥ 7.00
23 | O=CN(O)C[C@@H](CC1CCCC1)C(=O)NNc1nc(Cl)nc(NC2CCCC2)c1F [Example 163, [(2R)-3-{2-[2-Chloro-6-(cyclopentylamino)-5-fluoro-4-pyrimidinyl]hydrazino}-2-(cyclopentylmethyl)-3-oxopropyl]hydroxyformamide] | ≥ 7.00
24 | CC1(N2CCOCC2)CN(c2nc(Cl)nc(NNC(=O)[C@H](CC3CCCC3)CN(O)C=O)c2F)C1 [Example 164, [(2R)-3-(2-{2-Chloro-5-fluoro-6-[3-methyl-3-(4-morpholinyl)-1-azetidinyl]-4-pyrimidinyl}hydrazino)-2-(cyclopentylmethyl)-3-oxopropyl]hydroxyformamide] | ≥ 7.00
25 | Cc1nc(NNC(=O)[C@H](CC2CCCC2)CN(O)C=O)c(F)c(N2CCC(c3ccncc3)C2)n1 (stereo partly drawn) [Example 165, [(2R)-2-(Cyclopentylmethyl)-3-(2-{5-fluoro-2-methyl-6-[3-(4-pyridinyl)-1-pyrrolidinyl]-4-pyrimidinyl}hydrazino)-3-oxopropyl]hydroxyformamide] | ≥ 7.00
26 | O=CN(O)C[C@@H](CC1CCCC1)C(=O)NNc1nc(Cl)nc(NC2CCC2)c1F [Example 168, [(2R)-3-{2-[2-Chloro-6-(cyclobutylamino)-5-fluoro-4-pyrimidinyl]hydrazino}-2-(cyclopentylmethyl)-3-oxopropyl]hydroxyformamide] | ≥ 7.00
27 | O=CN(O)C[C@@H](CC1CCCC1)C(=O)NNc1nc(Cl)nc(N2CCN3CCOC[C@H]3C2)c1F [Example 169, [(2R)-3-(2-{2-Chloro-5-fluoro-6-[(9aR)-hexahydropyrazino[2,1-c][1,4]oxazin-8(1H)-yl]-4-pyrimidinyl}hydrazino)-2-(cyclopentylmethyl)-3-oxopropyl]hydroxyformamide] | ≥ 7.00
28 | CC(C)[C@H]1CN(c2nc(Cl)nc(NNC(=O)[C@H](CC3CCCC3)CN(O)C=O)c2F)CCN1C [Example 170, [(2R)-3-(2-{2-Chloro-5-fluoro-6-[(3S)-4-methyl-3-(1-methylethyl)-1-piperazinyl]-4-pyrimidinyl}hydrazino)-2-(cyclopentylmethyl)-3-oxopropyl]hydroxyformamide] | ≥ 7.00
